No constants are given. Whether binding was seen depends on the method and setting. In cells and extracts the contact can be indirect. These calls come from enrichment with a bait or labelling near it, and not all partners need be listed. A no says only that the protein was not detected with the bait.

Amino acid sequences for entries named in this document (tags omitted). A change or cut given only in a name is not applied to a line headed by its entry. Residues count along the entry.
ClpC1^NTD (ClpC1 N-terminal domain alone, aa 1 to 147, C-terminal 3xFLAG) (A0R574, residues 1-147): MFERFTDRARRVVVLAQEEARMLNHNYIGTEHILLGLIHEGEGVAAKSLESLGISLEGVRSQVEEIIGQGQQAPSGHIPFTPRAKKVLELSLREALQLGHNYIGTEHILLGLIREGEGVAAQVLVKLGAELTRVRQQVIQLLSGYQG
ClpC1^CORE (ClpC1 lacking the NTD, aa 158 to 848, C-terminal 3xFLAG) (A0R574, residues 158-848): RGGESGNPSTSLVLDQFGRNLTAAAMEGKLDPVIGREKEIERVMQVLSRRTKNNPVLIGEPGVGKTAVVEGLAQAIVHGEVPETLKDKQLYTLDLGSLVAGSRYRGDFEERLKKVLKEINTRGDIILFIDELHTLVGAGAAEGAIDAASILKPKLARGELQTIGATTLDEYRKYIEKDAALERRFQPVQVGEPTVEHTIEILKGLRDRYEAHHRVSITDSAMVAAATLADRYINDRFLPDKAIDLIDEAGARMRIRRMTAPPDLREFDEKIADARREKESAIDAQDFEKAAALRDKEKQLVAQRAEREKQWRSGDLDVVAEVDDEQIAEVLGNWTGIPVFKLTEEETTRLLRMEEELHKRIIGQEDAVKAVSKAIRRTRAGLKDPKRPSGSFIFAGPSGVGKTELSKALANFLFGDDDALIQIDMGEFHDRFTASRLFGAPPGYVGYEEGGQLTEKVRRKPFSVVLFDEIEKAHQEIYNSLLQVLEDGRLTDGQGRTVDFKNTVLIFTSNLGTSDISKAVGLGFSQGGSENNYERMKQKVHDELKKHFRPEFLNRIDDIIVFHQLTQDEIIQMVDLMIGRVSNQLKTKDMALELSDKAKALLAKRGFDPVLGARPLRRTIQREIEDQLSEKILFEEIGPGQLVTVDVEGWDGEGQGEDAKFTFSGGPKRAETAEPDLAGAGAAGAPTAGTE
UniProt A0QSL6: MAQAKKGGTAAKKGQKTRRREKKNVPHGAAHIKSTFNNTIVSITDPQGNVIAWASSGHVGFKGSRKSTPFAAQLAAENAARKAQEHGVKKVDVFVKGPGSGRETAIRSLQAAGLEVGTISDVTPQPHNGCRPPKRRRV
UniProt A0R202: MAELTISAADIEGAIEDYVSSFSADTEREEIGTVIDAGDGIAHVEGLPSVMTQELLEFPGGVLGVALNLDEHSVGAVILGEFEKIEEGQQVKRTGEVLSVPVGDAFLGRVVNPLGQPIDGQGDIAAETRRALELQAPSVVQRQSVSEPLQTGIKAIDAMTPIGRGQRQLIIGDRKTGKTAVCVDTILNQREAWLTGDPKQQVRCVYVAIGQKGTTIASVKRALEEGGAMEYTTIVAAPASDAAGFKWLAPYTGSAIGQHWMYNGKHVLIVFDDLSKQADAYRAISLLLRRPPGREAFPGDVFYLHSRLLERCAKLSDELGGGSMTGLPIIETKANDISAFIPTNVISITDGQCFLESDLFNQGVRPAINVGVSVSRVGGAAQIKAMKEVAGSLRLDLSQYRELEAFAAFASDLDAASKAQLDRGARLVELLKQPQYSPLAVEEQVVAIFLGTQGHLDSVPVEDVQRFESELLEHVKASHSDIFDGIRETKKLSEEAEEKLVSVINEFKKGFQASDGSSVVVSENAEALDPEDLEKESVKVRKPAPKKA
UniProt A0R200: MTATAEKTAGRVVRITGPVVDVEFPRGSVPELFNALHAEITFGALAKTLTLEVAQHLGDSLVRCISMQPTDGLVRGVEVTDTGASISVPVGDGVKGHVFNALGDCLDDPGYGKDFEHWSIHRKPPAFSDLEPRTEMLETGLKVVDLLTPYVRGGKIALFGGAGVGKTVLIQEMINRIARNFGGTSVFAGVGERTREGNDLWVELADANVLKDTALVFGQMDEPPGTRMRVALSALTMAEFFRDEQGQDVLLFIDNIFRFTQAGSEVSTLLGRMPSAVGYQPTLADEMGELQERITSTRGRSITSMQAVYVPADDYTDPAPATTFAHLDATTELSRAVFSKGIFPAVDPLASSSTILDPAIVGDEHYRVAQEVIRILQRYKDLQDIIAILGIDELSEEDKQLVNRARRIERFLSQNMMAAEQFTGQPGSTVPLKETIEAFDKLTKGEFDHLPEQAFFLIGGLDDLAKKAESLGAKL
UniProt A0R617: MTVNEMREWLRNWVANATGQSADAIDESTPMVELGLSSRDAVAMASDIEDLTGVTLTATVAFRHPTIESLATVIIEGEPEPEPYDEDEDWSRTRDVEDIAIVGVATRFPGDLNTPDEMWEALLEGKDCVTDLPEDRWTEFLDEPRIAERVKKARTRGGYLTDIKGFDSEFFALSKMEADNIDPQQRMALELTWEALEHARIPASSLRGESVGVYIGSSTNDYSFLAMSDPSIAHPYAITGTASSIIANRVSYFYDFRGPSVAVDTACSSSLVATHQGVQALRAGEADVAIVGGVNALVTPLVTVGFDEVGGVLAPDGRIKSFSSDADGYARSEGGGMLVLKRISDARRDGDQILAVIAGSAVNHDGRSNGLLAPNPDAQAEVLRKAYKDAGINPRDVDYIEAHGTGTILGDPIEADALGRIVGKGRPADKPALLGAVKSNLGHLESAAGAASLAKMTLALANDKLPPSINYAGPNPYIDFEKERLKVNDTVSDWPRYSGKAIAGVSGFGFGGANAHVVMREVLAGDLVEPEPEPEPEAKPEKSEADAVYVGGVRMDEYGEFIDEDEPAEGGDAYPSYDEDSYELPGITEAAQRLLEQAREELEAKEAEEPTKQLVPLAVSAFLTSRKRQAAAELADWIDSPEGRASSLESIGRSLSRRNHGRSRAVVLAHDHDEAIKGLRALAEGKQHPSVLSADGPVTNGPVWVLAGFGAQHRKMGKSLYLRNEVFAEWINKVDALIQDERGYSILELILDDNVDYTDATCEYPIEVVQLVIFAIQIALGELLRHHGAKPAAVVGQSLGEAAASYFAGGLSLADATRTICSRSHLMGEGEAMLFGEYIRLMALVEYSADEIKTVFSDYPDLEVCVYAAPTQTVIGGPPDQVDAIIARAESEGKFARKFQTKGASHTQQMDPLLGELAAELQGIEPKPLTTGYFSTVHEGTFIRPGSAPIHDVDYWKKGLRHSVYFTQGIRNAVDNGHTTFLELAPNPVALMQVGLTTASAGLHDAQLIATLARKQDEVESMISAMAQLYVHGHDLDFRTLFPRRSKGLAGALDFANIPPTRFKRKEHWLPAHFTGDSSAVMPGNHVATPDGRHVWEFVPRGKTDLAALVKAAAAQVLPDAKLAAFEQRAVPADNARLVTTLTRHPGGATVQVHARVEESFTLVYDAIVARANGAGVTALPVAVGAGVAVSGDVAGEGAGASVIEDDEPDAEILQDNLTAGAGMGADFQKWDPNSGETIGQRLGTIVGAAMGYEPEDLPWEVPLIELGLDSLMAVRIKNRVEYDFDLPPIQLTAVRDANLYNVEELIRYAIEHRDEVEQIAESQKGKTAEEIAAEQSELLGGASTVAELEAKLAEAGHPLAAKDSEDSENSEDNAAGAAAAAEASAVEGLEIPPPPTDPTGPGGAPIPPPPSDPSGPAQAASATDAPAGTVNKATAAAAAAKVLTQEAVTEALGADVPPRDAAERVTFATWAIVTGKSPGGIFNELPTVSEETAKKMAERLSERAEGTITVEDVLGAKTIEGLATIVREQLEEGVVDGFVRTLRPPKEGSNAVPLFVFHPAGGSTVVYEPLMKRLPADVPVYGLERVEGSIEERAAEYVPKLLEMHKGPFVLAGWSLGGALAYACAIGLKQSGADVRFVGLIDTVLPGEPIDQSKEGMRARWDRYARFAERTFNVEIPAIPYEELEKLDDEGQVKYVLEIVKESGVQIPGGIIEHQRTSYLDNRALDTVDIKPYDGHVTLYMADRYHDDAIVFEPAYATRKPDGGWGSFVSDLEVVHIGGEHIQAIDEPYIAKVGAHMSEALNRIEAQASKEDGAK
UniProt P71533: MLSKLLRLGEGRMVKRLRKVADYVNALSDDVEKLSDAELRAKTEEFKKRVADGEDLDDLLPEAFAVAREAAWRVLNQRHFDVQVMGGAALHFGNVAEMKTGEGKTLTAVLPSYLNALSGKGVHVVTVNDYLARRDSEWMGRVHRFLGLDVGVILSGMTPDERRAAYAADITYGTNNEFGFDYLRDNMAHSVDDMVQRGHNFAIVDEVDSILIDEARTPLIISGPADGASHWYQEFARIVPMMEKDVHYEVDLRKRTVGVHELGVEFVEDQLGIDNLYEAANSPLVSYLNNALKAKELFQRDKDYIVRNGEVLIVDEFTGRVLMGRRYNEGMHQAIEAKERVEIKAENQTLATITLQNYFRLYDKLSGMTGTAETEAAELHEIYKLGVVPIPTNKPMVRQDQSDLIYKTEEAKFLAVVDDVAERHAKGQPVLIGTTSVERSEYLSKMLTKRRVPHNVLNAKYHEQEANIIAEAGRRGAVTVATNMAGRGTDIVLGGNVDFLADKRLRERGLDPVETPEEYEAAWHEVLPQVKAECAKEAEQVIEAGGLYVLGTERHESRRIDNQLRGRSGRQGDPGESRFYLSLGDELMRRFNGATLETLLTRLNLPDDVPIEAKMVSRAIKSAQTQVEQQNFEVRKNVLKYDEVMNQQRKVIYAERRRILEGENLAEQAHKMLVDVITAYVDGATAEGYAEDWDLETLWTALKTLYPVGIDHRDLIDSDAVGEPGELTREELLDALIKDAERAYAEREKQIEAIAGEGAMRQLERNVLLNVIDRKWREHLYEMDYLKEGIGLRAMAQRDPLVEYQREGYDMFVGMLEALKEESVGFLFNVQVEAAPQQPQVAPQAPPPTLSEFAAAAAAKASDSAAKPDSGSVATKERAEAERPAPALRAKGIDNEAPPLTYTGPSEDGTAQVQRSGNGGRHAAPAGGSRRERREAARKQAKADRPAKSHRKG
UniProt A0QV32: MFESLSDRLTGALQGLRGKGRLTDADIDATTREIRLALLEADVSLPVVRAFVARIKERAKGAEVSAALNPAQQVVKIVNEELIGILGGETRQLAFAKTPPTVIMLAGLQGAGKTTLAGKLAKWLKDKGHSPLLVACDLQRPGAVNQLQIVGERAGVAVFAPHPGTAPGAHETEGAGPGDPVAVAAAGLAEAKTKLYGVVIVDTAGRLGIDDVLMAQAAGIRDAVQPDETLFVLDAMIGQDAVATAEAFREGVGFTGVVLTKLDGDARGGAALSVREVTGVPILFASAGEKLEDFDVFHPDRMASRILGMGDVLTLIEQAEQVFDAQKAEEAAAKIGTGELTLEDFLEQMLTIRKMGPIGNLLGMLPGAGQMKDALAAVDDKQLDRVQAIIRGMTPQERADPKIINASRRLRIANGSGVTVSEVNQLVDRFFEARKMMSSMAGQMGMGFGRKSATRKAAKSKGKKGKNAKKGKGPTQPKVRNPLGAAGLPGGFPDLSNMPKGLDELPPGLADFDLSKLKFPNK
UniProt A0QQQ1: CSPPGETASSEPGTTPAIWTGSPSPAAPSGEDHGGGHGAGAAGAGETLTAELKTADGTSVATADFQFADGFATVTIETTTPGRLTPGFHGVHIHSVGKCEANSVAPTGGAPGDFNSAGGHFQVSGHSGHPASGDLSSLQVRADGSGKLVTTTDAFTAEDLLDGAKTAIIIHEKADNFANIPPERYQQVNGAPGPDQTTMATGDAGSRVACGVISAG
UniProt A0R052: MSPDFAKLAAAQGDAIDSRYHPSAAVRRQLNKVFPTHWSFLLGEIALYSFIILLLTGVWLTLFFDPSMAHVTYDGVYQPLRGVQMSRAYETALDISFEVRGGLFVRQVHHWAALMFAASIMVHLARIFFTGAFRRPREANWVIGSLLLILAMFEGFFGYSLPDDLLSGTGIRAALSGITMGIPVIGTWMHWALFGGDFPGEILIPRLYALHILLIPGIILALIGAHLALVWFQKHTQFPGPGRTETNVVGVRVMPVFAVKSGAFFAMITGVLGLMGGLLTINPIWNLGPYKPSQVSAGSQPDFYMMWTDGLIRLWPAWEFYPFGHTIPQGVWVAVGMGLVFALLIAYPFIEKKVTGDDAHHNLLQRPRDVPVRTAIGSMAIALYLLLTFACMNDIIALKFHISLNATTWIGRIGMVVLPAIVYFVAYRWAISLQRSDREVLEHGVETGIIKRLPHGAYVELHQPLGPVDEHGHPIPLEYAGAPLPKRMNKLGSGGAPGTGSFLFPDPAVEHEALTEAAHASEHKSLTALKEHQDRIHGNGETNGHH

Test [1] addresses ClpC1^CORE (ClpC1 lacking the NTD, aa 158 to 848, C-terminal 3xFLAG) (M. smegmatis) (UniProt A0R574). The experiment in a line: affinity purification with mass spectrometry; 3xFLAG-tagged ClpC1 construct expressed in M. smegmatis MC2155; lysate incubated with anti-FLAG M2 beads 1 h at 4°C in 25 mM HEPES, 10 mM MgCl2, 200 mM KCl, 0.1 mM EDTA, 10 mM ATP, pH 7.5; SDS-PAGE, in-gel trypsin digestion, LC-MS/MS; proteins seen in at least two of three biological replicates; proteins of the empty vector control ignored.

The target of test [2] is ClpC1^NTD (ClpC1 N-terminal domain alone, aa 1 to 147, C-terminal 3xFLAG) (M. smegmatis) (UniProt A0R574). Described as above.

As for “30S ribosomal protein S11 (from UniProt A0QSL6 1-138)”, the binding result was “binds” in test [1] and “no binding” in test [2]. Turning to “ATP synthase subunit alpha (from UniProt A0R202 1-548)”, the binding entry in test [1] is given as “no binding”; in test [2], “binds”.

For “ATP synthase subunit beta (from UniProt A0R200 1-475)”, the binding entry in test [1] and in test [2] was “binds” in each case.

For “Polyketide synthase Pks13 (from UniProt A0R617 1-1816)”, the binding result in test [2] is on record as “binds”. With “Protein translocase subunit SecA 1 (from UniProt P71533 1-953)”, the binding entry in test [1] and in test [2] was “binds” each time. For the substance “Signal recognition particle protein (fifty-four homolog) (from UniProt A0QV32 1-522)”, the binding entry in test [1] and in test [2] was “binds” in each case. Take “Superoxide dismutase [Cu-Zn] (EC 1.15.1.1) (from UniProt A0QQQ1)”: the binding result in test [1] and in test [2] was “binds” each time. With “Ubiquinol-cytochrome c reductase cytochrome b subunit (from UniProt A0R052 1-546)”, the values for the binding result in test [1] and in test [2] were “binds” and “no binding”, respectively.
